According to the supplement of paper PMC10849652:
The list shows a part of the results.

Protein sequences, listed by entry. Tags and fused reporters are not part of them. Lines headed by an entry give the natural chain unless they say otherwise; changes in a name come on top.
UniProt P28482, whole entry, looked up: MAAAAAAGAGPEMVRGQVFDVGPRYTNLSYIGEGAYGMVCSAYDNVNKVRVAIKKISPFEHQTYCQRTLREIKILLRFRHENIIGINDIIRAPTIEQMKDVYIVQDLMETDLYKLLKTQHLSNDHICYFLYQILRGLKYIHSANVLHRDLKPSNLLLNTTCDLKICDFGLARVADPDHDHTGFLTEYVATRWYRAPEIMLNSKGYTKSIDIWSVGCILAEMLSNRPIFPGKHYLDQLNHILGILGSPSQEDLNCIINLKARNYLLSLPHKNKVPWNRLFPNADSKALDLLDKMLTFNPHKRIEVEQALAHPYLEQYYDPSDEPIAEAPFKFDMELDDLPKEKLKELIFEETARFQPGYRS
UniProt Q8WWC4: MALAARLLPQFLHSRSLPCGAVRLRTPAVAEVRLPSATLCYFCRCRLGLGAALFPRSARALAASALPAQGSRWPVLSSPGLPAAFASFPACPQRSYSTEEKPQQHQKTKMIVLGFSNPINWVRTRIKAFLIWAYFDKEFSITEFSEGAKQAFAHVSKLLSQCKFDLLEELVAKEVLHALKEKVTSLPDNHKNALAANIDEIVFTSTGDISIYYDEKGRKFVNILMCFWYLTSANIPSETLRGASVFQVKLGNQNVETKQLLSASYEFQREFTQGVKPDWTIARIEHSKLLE
UniProt Q7Z3D4: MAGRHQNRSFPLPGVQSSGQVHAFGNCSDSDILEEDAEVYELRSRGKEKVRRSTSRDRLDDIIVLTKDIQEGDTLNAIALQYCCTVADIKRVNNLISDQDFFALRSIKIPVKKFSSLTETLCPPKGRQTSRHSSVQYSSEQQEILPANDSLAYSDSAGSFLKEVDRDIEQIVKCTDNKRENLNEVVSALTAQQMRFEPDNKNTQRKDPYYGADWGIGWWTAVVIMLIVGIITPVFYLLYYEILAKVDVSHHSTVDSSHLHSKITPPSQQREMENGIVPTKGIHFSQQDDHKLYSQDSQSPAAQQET
UniProt Q3KQU3: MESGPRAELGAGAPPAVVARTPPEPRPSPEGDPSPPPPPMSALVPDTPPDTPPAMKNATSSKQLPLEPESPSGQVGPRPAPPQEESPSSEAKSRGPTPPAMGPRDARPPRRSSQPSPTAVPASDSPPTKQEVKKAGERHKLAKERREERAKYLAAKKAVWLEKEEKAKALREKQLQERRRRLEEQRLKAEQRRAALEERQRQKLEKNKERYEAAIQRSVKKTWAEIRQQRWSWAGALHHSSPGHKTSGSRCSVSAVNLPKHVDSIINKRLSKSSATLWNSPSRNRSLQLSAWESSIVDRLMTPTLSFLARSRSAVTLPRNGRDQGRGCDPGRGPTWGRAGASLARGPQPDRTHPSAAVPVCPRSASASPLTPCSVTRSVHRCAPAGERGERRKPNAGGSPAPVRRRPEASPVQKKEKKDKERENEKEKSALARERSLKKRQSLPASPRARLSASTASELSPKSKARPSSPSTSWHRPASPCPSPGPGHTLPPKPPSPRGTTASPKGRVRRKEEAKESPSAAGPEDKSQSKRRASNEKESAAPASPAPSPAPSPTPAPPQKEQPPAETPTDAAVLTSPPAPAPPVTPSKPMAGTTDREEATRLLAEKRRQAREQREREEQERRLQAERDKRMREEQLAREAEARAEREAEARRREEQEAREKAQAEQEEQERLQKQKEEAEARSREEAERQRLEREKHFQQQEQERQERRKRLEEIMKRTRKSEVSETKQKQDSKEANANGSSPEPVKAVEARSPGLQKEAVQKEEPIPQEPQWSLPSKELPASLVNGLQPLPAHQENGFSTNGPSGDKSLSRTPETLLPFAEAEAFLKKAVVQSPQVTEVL
UniProt O15116: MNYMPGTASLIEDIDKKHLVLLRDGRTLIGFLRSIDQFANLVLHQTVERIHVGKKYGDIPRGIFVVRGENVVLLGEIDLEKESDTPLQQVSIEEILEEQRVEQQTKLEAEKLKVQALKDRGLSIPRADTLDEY
UniProt Q9NQ48: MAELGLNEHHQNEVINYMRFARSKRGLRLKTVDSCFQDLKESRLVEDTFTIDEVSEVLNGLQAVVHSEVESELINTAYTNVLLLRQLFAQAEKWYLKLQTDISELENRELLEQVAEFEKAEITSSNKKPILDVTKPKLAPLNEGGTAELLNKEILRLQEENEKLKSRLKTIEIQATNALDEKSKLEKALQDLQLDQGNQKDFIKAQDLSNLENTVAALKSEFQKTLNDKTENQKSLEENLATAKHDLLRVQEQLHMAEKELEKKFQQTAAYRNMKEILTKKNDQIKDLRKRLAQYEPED
UniProt Q15013: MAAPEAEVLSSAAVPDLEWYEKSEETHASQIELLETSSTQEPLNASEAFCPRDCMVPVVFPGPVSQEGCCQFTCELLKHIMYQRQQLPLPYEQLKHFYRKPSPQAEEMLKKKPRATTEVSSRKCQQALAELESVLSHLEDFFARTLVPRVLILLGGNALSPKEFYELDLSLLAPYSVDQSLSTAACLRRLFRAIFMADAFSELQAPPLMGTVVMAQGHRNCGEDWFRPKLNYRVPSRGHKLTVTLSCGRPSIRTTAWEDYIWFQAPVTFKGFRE
UniProt Q96S90: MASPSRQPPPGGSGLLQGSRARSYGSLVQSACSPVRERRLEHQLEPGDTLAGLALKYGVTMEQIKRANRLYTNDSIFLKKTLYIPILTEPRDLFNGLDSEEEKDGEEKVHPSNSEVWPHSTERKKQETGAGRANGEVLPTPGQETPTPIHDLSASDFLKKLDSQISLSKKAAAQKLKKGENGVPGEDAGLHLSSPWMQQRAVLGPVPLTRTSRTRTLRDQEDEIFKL
UniProt Q9NU23: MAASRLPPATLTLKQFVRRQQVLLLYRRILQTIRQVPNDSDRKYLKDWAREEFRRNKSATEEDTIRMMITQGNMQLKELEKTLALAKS
UniProt Q5U5X0: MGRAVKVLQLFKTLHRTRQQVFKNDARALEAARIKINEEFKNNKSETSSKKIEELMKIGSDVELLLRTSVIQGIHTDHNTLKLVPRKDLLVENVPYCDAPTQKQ
UniProt Q16644, whole entry, looked up: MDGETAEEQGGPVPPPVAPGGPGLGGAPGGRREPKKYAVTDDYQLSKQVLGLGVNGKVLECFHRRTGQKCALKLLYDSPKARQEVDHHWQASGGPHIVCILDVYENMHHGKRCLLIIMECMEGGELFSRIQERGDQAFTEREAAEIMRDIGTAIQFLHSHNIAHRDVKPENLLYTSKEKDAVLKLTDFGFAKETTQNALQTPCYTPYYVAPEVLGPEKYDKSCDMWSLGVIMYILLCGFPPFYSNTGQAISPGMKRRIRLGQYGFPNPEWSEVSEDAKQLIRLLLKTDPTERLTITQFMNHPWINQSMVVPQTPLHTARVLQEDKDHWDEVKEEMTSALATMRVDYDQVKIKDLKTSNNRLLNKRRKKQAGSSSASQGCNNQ
UniProt Q9UNF1: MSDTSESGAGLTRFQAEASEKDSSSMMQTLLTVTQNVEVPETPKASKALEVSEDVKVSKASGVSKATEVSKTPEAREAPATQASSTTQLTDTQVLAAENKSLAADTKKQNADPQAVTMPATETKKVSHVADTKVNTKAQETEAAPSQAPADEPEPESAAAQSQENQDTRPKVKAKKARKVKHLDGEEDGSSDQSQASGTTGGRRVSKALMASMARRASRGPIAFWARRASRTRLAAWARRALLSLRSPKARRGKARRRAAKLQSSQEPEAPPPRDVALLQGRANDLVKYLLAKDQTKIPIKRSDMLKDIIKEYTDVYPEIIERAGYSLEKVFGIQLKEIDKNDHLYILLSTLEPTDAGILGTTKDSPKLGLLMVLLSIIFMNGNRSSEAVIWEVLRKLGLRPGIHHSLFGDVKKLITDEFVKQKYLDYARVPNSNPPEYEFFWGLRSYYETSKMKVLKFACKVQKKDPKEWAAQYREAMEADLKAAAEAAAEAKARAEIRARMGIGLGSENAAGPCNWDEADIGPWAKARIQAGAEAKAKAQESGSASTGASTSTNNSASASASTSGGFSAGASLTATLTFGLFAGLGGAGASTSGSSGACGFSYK
UniProt Q3MHD2: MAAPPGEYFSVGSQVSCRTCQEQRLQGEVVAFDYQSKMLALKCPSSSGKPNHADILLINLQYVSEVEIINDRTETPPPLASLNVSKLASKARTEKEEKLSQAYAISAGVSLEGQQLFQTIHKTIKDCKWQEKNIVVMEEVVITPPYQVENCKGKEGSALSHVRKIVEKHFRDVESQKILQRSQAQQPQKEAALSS
UniProt Q9BX40: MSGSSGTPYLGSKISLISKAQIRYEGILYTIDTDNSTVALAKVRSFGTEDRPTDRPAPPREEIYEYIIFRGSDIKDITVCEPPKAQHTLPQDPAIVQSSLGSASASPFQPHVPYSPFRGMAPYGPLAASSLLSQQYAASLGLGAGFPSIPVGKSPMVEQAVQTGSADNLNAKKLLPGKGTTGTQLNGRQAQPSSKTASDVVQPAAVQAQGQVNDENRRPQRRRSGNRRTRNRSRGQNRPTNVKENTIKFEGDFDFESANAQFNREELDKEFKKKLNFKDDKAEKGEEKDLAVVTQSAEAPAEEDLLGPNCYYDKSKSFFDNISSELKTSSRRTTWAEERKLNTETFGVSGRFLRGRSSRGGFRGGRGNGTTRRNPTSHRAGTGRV
UniProt Q9Y608: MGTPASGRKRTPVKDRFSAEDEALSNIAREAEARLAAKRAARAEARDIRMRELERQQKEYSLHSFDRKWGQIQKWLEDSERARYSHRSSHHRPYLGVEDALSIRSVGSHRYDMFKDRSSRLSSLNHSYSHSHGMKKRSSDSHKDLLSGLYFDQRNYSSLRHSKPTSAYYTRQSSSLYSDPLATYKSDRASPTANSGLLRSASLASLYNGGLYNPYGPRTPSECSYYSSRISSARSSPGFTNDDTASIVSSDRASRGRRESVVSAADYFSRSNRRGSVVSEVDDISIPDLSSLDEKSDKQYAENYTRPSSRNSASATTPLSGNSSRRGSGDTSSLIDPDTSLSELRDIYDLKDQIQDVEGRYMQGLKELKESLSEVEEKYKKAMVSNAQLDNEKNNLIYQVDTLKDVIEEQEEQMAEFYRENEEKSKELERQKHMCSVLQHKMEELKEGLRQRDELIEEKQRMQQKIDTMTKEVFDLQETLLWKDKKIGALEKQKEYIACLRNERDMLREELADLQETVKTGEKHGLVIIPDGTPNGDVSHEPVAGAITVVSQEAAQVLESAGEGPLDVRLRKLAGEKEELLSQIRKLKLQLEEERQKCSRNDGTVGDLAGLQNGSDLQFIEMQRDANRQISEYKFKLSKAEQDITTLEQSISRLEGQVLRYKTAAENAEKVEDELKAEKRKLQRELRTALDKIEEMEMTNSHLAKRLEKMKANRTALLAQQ
UniProt Q9UBF1: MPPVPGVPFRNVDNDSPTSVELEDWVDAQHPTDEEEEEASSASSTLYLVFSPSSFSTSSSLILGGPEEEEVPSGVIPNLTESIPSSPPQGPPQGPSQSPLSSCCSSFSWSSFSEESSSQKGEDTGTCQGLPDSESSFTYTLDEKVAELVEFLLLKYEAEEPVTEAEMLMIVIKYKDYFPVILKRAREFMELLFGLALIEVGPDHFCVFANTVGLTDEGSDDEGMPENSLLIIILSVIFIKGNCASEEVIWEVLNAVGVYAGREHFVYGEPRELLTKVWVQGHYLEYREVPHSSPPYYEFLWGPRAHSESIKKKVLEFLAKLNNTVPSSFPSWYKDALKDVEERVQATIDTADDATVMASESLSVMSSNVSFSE
UniProt Q16539, whole entry, looked up: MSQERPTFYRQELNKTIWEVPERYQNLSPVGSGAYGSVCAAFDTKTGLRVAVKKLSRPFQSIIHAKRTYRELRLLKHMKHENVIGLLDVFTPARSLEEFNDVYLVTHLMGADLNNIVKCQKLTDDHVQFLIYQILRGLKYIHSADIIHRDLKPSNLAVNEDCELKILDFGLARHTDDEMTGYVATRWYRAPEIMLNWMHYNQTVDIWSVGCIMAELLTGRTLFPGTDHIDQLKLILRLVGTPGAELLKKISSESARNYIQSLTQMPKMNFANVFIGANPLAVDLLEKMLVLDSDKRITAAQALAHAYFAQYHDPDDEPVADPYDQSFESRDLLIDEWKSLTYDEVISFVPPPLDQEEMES
UniProt P33908: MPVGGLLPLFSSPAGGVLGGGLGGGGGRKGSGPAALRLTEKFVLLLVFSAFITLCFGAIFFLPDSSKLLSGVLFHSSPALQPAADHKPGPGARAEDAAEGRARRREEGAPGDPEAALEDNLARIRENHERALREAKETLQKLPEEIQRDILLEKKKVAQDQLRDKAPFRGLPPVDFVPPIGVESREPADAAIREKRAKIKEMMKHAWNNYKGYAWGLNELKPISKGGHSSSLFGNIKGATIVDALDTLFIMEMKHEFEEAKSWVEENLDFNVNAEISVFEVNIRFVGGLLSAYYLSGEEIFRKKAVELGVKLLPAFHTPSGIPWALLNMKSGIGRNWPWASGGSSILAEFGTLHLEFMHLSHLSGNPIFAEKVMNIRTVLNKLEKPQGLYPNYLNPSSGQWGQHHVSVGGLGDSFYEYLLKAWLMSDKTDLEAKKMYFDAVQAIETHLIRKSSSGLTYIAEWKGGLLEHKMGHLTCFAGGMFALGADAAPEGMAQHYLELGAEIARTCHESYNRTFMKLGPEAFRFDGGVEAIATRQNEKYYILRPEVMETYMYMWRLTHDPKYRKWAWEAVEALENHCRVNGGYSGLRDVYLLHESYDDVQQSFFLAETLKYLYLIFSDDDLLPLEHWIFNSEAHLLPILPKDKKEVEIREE

Assays:
Assay in all cases: log2 fold change, soluble protein after heating vs DMSO (PISA); higher = thermal stabilisation; K562 cells, 10 uM, 30 min; active = over 0.2 and 3.5 SD of the protein, either way, in both replicates (recomputed)
[1] = compound: C#Cc1cccc(Nc2ncnc3cc(OCCOC)c(OCCOC)cc23)c1 [erlotinib]
Method in brief: (§1)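 K562 cells at 2×10^6 cells/mL were treated with 10 μM compound for 30 min. Aliquots were heated for 3 min across 48°C-58°C, pooled, and extracted in PBS with 0.5% NP-40 at 4°C; soluble protein was the supernatant after 21,000xg for 90 min. Soluble protein was quantified by TMTpro 16plex LC-MS/MS with channel sums equalised, and reported as log2 fold change in thermal stability against DMSO controls, with values from duplicates.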

[2] = compound: C/C(=N\NC(=O)C1=CC(=CC=C1)S(=O)(=O)N2CCOCC2)/C3=C(C=CC(=C3)Cl)O
Method in brief: as §1

[3] = compound: C1=CC(=C(C=C1Cl)C2=NC3=NC=CN=C3C(=N2)NC4=CC=NC=C4)F
Method in brief: as §1

[4] = compound: C1=CC(=CC=C1C2=NC3=C(N2)C=C(C=C3)C(=O)N)OC4=CC=C(C=C4)Cl
Method in brief: as §1

[5] = compound: C1=CC2=C(C=CC(=C2)/C=C\3/C(=O)NC(=NCC4=CC=CS4)S3)N=C1
Method in brief: as §1

[6] = compound: C1=CC2=NC=CN=C2C=C1/C=C/3\C(=O)NC(=O)S3
Method in brief: as §1

[7] = compound: C1=CC=C(C=C1)C2=NC(=C(N2)C3=CC=NC=C3)C4=CC(=C(C=C4)Cl)O
Method in brief: as §1

[8] = compound: C1=CC=C2C(=C1)C3=NNC4=CC=CC(=C43)C2=O
Method in brief: as §1

[9] = compound: C1CCN(C1)C(=O)NC2=CC=CC(=C2)NC3=NC=C(C(=N3)NCCC4=CN=CN4)Br
Method in brief: as §1

[10] = compound: C1CN(CCC1(CC2=CC=C(C=C2)Cl)N)C3=NC=NC4=C3C=CN4
Method in brief: as §1

Target | log2 fold change [1] | log2 fold change [2] | log2 fold change [3] | log2 fold change [4] | log2 fold change [5] | log2 fold change [6] | log2 fold change [7] | log2 fold change [8] | log2 fold change [9] | log2 fold change [10]
LTBR (UniProt P36941) | inactive: 0.012 | inactive: -0.145 | inactive: 0.254 | inactive: -0.035 | inactive: -0.074 | inactive: 0.01 | inactive: -0.183 | inactive: -0.033 | inactive: 0.043 | inactive: 0.187
MAPK1 (UniProt P28482) | inactive: 0.013 | inactive: 0.052 | inactive: 0.058 | inactive: 0.001 | inactive: -0.02 | inactive: 0.016 | inactive: 0.007 | inactive: 0.022 | inactive: 0.01 | inactive: 0.014
MAIP1 (UniProt Q8WWC4) | inactive: -0.02 | inactive: 0.006 | inactive: -0.012 | inactive: 0.002 | inactive: 0.02 | inactive: 0.042 | inactive: 0.066 | inactive: 0.037 | inactive: -0.024 | inactive: 0.012
LYSMD3 (UniProt Q7Z3D4) | inactive: 0.023 | inactive: 0.168 | inactive: -0.01 | inactive: 0.035 | inactive: -0.249 | inactive: -0.005 | inactive: -0.157 | inactive: 0.088 | inactive: 0.076 | inactive: -0.022
MAP7D1 (UniProt Q3KQU3) | inactive: -0.06 | inactive: -0.221 | inactive: -0.42 | inactive: 0.045 | inactive: -0.053 | inactive: -0.093 | inactive: -0.041 | inactive: 0.048 | inactive: 0.005 | inactive: -0.084
MAN2C1 isoform 4 (UniProt Q9NTJ4) | inactive: -0.003 | inactive: -0.138 | inactive: 0.158 | inactive: 0.058 | inactive: 0.046 | inactive: 0.07 | inactive: -0.017 | inactive: 0.023 | inactive: -0.025 | inactive: 0.162
LSM1 (UniProt O15116) | inactive: -0.041 | inactive: 0.037 | inactive: 0.019 | inactive: 0.059 | inactive: 0.03 | inactive: -0.044 | inactive: -0.048 | inactive: -0.024 | inactive: -0.015 | inactive: 0.028
LZTFL1 (UniProt Q9NQ48) | inactive: -0.038 | inactive: 0.018 | inactive: 0.068 | inactive: 0.082 | inactive: 0.025 | inactive: 0.044 | inactive: -0.041 | inactive: -0.014 | inactive: 0.014 | inactive: 0
MAP3K7 (UniProt O43318) | inactive: 0.078 | inactive: 0.009 | inactive: -0.067 | inactive: -0.091 | inactive: 0.034 | inactive: -0.031 | inactive: -0.016 | inactive: 0.113 | inactive: -0.005 | inactive: -0.168
MALSU1 (UniProt Q96EH3) | inactive: 0.007 | inactive: 0.158 | inactive: -0.038 | inactive: 0.043 | inactive: 0.026 | inactive: 0 | inactive: 0.023 | inactive: -0.009 | inactive: 0.018 | inactive: 0.022
MAD2L1BP isoform 3 (UniProt Q15013) | inactive: 0.044 | inactive: 0.01 | inactive: 0.049 | inactive: 0.035 | inactive: -0.062 | inactive: 0.064 | inactive: 0.012 | inactive: -0.008 | inactive: -0.011 | inactive: 0.007
LYSMD1 (UniProt Q96S90) | inactive: 0.019 | inactive: 0.084 | inactive: 0.061 | inactive: 0 | inactive: 0.012 | inactive: 0.097 | inactive: 0.031 | inactive: -0.07 | inactive: 0.009 | inactive: 0.038
LYRM2 (UniProt Q9NU23) | inactive: -0.023 | inactive: 0.001 | inactive: 0.051 | inactive: -0.007 | inactive: 0.026 | inactive: 0.026 | inactive: 0.013 | inactive: -0.003 | inactive: -0.007 | inactive: -0.004
LSS (UniProt P48449) | inactive: 0.293 | inactive: 0.073 | inactive: -0.029 | inactive: 0.051 | inactive: 0.128 | inactive: 0.069 | inactive: -0.005 | inactive: 0.081 | inactive: 0.005 | inactive: 0.089
LYRM7 (UniProt Q5U5X0) | inactive: 0.008 | inactive: 0.018 | inactive: 0.012 | inactive: -0.021 | inactive: 0.051 | inactive: -0.059 | inactive: 0.053 | inactive: 0.011 | inactive: -0.03 | inactive: -0.018
MAPKAPK3 (UniProt Q16644) | inactive: 0.034 | inactive: -0.012 | active: 0.431 | inactive: -0.041 | inactive: 0.024 | inactive: -0.069 | inactive: 0.256 | inactive: 0.029 | inactive: 0.021 | inactive: -0.054
MAGED2 (UniProt Q9UNF1) | inactive: 0.36 | inactive: -0.306 | inactive: -0.04 | inactive: 0.001 | inactive: 0.189 | inactive: 0.024 | inactive: -0.011 | inactive: 0.023 | inactive: -0.021 | inactive: 0.106
LYZ (UniProt P61626) | inactive: 0.019 | inactive: 0.024 | inactive: 0.057 | inactive: 0.108 | inactive: 0.041 | inactive: -0.115 | inactive: -0.009 | inactive: -0.001 | inactive: -0.026 | inactive: -0.024
LSM12 isoform 2 (UniProt Q3MHD2) | inactive: 0.023 | inactive: 0.006 | inactive: -0.019 | inactive: -0.076 | inactive: 0.002 | inactive: -0.007 | inactive: 0.026 | inactive: 0.005 | inactive: -0.013 | inactive: -0.034
LRWD1 (UniProt Q9UFC0) | inactive: 0.035 | inactive: 0.361 | inactive: 0.074 | inactive: -0.089 | inactive: 0.076 | inactive: -0.061 | inactive: 0.112 | inactive: 0.148 | inactive: -0.061 | inactive: -0.045
LSM14B (UniProt Q9BX40) | inactive: -0.101 | inactive: -0.038 | inactive: -0.001 | inactive: 0.02 | inactive: 0.062 | inactive: -0.058 | inactive: -0.057 | inactive: 0.024 | inactive: 0.021 | inactive: -0.15
LRRFIP2 (UniProt Q9Y608) | inactive: 0.021 | inactive: 0.001 | inactive: -0.008 | inactive: 0.016 | inactive: 0.014 | inactive: 0.084 | inactive: -0.057 | inactive: -0.022 | inactive: 0.029 | inactive: -0.013
MAGEC2 (UniProt Q9UBF1) | inactive: -0.026 | inactive: 0.024 | inactive: -0.099 | inactive: -0.018 | inactive: -0.003 | inactive: 0.03 | inactive: -0.011 | inactive: -0.004 | inactive: -0.022 | inactive: 0.051
MARK3 (UniProt P27448) | inactive: 0.009 | inactive: 0.116 | inactive: -0.031 | inactive: 0.014 | inactive: 0 | inactive: 0.008 | inactive: -0.032 | active: -0.578 | inactive: -0.221 | inactive: -0.208
MAPK14 isoform 2 (UniProt Q16539) | inactive: 0.313 | inactive: -0.051 | active: 0.936 | inactive: -0.136 | inactive: 0.01 | inactive: -0.013 | active: 1 | inactive: 0.207 | inactive: 0.021 | inactive: -0.102
MAN1A1 (UniProt P33908) | inactive: 0.011 | inactive: -0.07 | inactive: 0.01 | inactive: -0.009 | inactive: 0.025 | inactive: 0.029 | inactive: 0.008 | inactive: -0.042 | inactive: 0.032 | inactive: -0.017
MANBA (UniProt O00462) | inactive: 0.018 | inactive: 0.013 | inactive: 0.029 | inactive: 0.011 | inactive: 0.028 | inactive: 0.033 | inactive: -0.034 | inactive: -0.018 | inactive: 0.003 | inactive: 0.036

An excerpt of these results, as tab-separated lines.
Target	log2 fold change [1]	log2 fold change [2]	log2 fold change [3]	log2 fold change [4]	log2 fold change [5]	log2 fold change [6]	log2 fold change [7]	log2 fold change [8]	log2 fold change [9]	log2 fold change [10]
MAD2L1BP isoform 3 (UniProt Q15013)	inactive: 0.044	inactive: 0.01	inactive: 0.049	inactive: 0.035	inactive: -0.062	inactive: 0.064	inactive: 0.012	inactive: -0.008	inactive: -0.011	inactive: 0.007
LYSMD1 (UniProt Q96S90)	inactive: 0.019	inactive: 0.084	inactive: 0.061	inactive: 0	inactive: 0.012	inactive: 0.097	inactive: 0.031	inactive: -0.07	inactive: 0.009	inactive: 0.038
